Source: paper PMC9302817, “VEGF receptor heterodimers and homodimers are differentially expressed in neuronal and endothelial cell types” (PLoS ONE, 2022)
These are yes or no findings as the source states them, for the method shown. In cells and extracts the contact can be indirect. Some binding calls cover weakened binding; strength is not graded here.

Biological target: T1, VEGFR1 (mouse, endogenous in MAEC, MVEC, trigeminal ganglion neurons and mouse tissues) (mouse (endogenous in MAEC, MVEC, trigeminal ganglion neurons and mouse tissues)) (UniProt P35969)
T1 sequence: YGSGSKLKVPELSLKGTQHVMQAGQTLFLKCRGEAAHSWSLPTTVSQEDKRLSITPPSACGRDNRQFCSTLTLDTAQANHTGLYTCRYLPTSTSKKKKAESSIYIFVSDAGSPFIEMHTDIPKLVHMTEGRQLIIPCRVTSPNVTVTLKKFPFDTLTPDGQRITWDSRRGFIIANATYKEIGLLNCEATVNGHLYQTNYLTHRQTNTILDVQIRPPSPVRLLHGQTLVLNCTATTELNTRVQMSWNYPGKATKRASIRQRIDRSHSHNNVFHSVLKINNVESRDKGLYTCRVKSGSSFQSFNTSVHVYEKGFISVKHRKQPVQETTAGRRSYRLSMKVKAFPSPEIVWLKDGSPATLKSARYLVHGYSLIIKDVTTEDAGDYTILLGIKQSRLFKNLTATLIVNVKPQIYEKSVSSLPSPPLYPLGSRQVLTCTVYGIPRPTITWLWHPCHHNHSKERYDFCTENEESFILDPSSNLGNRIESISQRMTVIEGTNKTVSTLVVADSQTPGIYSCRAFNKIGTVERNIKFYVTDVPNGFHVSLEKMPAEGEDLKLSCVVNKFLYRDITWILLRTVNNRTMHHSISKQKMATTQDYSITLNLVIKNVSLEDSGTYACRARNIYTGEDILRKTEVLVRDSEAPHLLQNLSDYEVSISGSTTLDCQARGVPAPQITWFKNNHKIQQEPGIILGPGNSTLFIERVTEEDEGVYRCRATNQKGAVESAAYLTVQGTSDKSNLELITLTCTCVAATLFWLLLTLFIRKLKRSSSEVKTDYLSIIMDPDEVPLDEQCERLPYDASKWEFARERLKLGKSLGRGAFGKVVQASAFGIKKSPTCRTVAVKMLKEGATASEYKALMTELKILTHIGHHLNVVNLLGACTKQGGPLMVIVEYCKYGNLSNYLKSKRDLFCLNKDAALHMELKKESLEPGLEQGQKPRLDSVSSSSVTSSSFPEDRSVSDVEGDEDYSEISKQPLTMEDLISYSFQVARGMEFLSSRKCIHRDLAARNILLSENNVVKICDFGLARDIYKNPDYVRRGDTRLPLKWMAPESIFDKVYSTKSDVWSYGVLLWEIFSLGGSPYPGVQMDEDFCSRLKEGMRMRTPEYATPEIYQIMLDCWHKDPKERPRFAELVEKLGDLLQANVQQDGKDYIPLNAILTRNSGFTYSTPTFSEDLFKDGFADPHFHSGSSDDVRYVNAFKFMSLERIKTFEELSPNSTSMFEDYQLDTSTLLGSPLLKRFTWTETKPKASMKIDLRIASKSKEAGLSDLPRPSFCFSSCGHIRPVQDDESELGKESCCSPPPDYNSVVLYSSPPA
Assay: proximity ligation; Duolink PLA on fixed MAEC; anti-VEGFR1 and anti-VEGFR2 with PLUS and MINUS probes (the same antibody with both probes for homodimers); signal only within 40 nm

B1: VEGFR1 (mouse, endogenous in MAEC, MVEC, trigeminal ganglion neurons and mouse tissues) (receptor, UniProt P35969 23-1333, looked up)
chain: T1 sequence
notes: VEGF receptor 1 (VEGFR-1, flt-1), endogenous in mouse aortic and venous endothelial cell lines, thy1-YFP mouse trigeminal ganglion neurons and mouse tissues; Endogenous protein; also called flt-1; Flt-1; source: endogenous, MAEC and MVEC lysates; endogenous, mouse tissue lysates (thoracic aorta, portal vein, dorsal root ganglia, trigeminal ganglia, cornea); endogenous, fixed MAEC, MVEC and …
- binding: binds weakly
